The results in this text go back to the supplement of paper PMC10849652.

Protein sequences, listed by entry. Tags and fused reporters are not part of them. Lines headed by an entry give the natural chain unless they say otherwise; changes in a name come on top.
UniProt P00738: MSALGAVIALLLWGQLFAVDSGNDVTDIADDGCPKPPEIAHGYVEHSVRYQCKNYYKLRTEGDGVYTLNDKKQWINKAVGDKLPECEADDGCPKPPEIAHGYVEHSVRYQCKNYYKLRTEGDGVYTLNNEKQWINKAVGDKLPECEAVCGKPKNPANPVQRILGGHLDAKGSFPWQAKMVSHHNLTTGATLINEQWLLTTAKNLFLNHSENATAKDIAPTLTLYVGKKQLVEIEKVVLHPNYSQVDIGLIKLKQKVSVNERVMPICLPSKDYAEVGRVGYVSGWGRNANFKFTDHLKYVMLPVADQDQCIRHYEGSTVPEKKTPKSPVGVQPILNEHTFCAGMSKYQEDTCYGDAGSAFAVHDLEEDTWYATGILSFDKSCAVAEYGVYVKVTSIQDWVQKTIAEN
UniProt P13747, whole entry, looked up: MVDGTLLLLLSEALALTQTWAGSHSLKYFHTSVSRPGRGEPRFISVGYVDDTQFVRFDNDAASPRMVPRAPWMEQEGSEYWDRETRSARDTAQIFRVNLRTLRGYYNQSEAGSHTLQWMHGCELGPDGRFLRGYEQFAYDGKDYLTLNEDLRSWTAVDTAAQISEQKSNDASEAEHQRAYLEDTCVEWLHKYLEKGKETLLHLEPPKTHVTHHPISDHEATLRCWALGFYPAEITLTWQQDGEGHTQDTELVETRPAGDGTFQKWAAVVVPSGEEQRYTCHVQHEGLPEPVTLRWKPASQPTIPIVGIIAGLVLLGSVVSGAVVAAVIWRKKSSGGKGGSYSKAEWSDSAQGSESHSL
UniProt Q9BYK8: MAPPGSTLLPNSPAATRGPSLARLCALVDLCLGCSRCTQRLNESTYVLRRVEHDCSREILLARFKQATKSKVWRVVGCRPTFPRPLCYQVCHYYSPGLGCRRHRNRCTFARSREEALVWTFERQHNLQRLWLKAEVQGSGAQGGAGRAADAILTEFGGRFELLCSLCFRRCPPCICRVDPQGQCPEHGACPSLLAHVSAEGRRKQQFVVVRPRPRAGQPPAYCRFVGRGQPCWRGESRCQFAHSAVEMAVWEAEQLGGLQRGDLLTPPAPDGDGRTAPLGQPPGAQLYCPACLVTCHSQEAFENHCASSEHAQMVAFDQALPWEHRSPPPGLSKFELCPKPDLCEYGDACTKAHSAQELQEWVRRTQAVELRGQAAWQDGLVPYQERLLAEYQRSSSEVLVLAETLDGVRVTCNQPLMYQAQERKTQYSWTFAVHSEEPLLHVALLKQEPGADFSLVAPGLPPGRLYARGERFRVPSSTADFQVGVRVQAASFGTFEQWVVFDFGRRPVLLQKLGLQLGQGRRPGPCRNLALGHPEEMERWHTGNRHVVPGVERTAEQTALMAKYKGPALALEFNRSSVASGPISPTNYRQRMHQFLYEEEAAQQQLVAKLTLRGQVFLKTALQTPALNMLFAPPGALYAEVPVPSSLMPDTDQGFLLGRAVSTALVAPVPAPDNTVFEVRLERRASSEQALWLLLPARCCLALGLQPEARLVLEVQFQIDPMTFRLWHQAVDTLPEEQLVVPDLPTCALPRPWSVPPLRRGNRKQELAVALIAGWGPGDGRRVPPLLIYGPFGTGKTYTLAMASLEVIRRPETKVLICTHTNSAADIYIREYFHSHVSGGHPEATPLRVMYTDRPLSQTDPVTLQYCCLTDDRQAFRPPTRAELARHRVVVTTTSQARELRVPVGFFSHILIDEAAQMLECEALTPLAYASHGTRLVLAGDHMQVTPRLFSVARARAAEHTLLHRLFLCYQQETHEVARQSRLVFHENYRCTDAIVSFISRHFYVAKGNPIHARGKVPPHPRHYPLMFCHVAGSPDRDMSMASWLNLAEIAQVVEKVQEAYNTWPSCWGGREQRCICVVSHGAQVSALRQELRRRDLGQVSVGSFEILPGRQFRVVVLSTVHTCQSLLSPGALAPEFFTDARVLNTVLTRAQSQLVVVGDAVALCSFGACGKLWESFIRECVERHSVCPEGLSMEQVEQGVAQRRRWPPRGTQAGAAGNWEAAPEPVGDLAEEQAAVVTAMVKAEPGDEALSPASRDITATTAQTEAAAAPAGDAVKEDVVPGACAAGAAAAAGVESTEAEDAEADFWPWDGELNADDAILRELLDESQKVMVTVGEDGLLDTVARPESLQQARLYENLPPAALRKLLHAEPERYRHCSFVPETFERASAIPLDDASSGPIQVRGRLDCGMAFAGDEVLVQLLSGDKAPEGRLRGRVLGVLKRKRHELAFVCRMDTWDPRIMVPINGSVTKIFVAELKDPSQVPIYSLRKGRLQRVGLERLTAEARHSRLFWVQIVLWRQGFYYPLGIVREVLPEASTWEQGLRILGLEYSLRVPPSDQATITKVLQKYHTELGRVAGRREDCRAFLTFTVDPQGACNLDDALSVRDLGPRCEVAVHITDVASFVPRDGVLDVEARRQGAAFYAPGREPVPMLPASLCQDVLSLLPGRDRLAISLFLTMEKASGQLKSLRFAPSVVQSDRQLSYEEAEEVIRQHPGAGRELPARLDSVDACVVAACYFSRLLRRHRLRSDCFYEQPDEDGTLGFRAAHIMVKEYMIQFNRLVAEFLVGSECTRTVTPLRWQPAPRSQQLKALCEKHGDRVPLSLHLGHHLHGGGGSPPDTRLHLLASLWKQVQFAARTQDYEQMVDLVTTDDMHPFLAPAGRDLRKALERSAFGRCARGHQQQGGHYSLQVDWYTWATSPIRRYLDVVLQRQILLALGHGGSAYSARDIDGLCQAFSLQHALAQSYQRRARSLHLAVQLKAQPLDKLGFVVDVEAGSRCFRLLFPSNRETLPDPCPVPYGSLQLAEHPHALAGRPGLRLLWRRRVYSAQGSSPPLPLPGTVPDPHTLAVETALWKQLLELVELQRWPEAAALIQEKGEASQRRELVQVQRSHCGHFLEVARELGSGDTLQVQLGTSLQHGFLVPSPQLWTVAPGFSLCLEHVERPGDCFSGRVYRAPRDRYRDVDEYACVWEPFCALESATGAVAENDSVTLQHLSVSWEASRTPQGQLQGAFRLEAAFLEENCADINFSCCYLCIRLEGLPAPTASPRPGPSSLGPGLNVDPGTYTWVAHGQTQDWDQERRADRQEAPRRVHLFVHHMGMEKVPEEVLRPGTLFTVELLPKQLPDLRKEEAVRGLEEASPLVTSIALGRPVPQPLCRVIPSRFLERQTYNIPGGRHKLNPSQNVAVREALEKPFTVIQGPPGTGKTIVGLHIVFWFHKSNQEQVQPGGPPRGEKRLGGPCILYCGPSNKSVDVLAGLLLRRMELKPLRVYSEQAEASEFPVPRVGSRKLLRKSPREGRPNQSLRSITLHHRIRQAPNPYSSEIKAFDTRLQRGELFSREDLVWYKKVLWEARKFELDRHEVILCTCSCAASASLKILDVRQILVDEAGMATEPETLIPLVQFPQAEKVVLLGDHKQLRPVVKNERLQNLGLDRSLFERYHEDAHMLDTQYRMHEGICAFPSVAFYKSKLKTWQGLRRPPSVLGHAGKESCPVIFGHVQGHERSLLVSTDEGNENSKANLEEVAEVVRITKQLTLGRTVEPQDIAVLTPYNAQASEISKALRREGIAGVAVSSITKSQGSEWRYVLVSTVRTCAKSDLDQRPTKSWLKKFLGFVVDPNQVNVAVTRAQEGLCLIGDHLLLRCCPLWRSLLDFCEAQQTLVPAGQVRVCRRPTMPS
UniProt Q15034: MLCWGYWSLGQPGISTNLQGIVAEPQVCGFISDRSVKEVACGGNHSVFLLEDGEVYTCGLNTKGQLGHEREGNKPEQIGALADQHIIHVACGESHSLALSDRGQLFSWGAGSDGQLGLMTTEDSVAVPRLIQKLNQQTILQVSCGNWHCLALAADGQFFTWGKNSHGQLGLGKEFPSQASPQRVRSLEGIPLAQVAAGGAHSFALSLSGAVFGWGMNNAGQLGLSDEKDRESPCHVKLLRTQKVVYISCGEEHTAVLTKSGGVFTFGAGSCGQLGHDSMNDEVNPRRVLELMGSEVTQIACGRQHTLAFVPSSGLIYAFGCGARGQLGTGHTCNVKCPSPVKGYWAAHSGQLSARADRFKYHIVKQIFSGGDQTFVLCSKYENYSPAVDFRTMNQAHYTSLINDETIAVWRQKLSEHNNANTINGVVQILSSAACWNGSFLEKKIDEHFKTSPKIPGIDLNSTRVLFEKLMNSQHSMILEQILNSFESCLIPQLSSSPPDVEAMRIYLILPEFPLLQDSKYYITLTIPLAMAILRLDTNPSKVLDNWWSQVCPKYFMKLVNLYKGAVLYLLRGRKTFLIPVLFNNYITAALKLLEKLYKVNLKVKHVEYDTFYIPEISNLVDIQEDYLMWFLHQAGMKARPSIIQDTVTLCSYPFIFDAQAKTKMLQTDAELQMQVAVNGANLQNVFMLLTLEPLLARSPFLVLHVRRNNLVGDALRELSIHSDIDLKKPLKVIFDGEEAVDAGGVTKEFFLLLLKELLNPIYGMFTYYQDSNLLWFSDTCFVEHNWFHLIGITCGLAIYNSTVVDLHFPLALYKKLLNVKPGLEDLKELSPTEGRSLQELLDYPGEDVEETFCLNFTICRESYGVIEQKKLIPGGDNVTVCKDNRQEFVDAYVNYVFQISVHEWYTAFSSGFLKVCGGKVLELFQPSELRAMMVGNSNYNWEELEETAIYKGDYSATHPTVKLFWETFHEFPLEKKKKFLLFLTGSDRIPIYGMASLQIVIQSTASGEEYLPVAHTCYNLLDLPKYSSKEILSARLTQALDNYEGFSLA
UniProt Q00839, whole entry, looked up: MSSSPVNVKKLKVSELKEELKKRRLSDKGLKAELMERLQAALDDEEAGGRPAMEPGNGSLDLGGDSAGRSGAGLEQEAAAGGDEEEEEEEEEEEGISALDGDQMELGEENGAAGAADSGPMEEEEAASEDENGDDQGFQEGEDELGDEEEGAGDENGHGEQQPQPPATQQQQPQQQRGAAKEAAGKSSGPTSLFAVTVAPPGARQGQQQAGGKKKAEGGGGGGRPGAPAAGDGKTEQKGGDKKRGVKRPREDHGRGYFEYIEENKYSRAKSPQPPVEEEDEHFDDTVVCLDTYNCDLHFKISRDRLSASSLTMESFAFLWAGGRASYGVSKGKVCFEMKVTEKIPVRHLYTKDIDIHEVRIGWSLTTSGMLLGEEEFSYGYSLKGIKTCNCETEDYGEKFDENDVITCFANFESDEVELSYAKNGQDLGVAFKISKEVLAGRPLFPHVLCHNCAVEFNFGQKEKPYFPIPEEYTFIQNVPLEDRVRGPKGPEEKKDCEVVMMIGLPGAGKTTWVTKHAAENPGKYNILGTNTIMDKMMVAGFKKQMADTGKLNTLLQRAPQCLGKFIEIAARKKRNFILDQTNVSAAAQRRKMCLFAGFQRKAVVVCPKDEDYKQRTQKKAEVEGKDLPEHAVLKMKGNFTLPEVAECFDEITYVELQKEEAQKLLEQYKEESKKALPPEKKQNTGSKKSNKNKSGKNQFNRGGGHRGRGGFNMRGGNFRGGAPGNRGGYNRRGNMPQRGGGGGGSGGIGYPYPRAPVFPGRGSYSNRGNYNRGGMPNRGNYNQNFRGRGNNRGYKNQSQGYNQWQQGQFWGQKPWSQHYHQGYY
UniProt O75506: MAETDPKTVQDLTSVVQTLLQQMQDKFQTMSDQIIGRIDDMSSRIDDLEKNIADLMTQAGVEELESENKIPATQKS
UniProt Q86YV9: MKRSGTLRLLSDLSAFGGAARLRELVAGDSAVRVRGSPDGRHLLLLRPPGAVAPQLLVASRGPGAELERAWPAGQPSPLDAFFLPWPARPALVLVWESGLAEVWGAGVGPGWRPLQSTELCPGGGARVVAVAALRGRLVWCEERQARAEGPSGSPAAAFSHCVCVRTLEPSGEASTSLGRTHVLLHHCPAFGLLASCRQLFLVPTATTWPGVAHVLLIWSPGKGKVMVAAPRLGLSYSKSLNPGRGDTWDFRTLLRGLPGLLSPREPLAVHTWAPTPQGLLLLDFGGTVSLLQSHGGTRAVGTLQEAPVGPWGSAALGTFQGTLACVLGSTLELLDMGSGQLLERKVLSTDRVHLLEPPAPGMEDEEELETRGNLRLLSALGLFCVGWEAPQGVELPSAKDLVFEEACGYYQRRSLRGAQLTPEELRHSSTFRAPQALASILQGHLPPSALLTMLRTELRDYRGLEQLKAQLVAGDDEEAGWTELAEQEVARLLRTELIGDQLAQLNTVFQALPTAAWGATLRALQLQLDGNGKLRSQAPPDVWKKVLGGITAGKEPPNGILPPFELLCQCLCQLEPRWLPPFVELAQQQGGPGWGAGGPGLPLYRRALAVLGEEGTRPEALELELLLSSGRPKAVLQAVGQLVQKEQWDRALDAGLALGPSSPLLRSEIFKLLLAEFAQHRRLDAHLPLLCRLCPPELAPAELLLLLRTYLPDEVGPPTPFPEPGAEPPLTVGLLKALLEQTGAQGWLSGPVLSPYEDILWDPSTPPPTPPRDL
UniProt Q9BW72: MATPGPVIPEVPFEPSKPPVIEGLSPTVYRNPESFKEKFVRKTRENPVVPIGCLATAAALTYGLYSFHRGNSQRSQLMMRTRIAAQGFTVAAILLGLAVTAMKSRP

The list shows a part of the results.

What all share (assay): log2 fold change, soluble protein after heating vs DMSO (PISA); higher = thermal stabilisation; K562 lysate, 10 uM; active = over 0.2 and 3.5 SD of the protein, either way, in both replicates (recomputed)
Compound in test [1]: C[C@H](C1=CC=C(C=C1)C(=O)NC2=C3C=CNC3=NC=C2)N
The gist of the method: (§1)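 Values give the log-two fold change in thermal stability against solvent controls, from duplicates. Crude K562 extract at 1 mg/mL protein, made by dounce homogenisation in PBS pH 7.4 with 1 mM MgCl2, was treated with 10 μM compound for 30 min. After 3 min heating across 48°C-58°C, aliquots were pooled, adjusted to 0.5% NP-40 at 4°C and centrifuged at 21,000xg for 90 min. The supernatant was measured by TMTpro 16plex LC-MS/MS with channel sums equalised.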

Compound in the next test: C[C@H](Nc1ncnc2nc[nH]c12)c1cc2cccc(Cl)c2c(=O)n1-c1ccccc1 [duvelisib]
The gist of the method: as §1

Compound in a further test: Cc1cc(Nc2cc(CN3CCOCC3)c3nc(C)c(Cc4ccc(Cl)cc4F)n3n2)n[nH]1 [gandotinib]
The gist of the method:
as §1

Compound in test [2]: Cc1cccc(CC(=O)N2CCc3c2ccc(-c2cn(C)c4ncnc(N)c24)c3F)n1
The gist of the method: as §1

Compound in another test: Cc1nc(Nc2ncc(C(=O)Nc3c(C)cccc3Cl)s2)cc(N2CCN(CCO)CC2)n1 [dasatinib]
The gist of the method: as §1

Compound in test [3]: Cn1cc(-c2ccc3c(c2)CCN3C(=O)Cc2cccc(C(F)(F)F)c2)c2c(N)ncnc21
Put shortly: as §1

Compound in a further test: Cc1cc(Nc2cc(N3CCN(C)CC3)nc(Sc3ccc(NC(=O)C4CC4)cc3)n2)n[nH]1 [tozasertib]
The gist of the method: as §1

Compound in test [4]: NC1(c2ccc(-c3nc4ccn5c(=O)[nH]nc5c4cc3-c3ccccc3)cc2)CCC1
Put shortly: as §1

Compound in the next test: C[C@@H](Oc1cc(-c2cnn(C3CCNCC3)c2)cnc1N)c1c(Cl)ccc(F)c1Cl [crizotinib]
The gist of the method:
as §1

Compound in another test: Cc1ccc(-n2nc(C(C)(C)C)cc2NC(=O)Nc2ccc(OCCN3CCOCC3)c3ccccc23)cc1 [doramapimod]
Put shortly: as §1

Compound in another test: Cc1cn(-c2cc(NC(=O)c3ccc(C)c(Nc4nccc(-c5cccnc5)n4)c3)cc(C(F)(F)F)c2)cn1 [nilotinib]
Put shortly:
as §1

Compound in test [5]: Cc1nc(Nc2n[nH]c3c2CN(C(=O)N[C@H](CN(C)C)c2ccccc2)C3(C)C)c2sccc2n1
Put shortly:
as §1

Compound in test [6]: Cc1ncc(-c2ccnc(Nc3ccc(S(C)(=O)=O)cc3)n2)n1C(C)C
Put shortly: as §1

Compound in the next test: Cn1cc(CNCC2CCN(c3ncc(C(=O)NO)cn3)CC2)c2ccccc21 [quisinostat]
The gist of the method: as §1

Compound in another test: Cn1cncc1[C@@](N)(c1ccc(Cl)cc1)c1ccc2c(c1)c(-c1cccc(Cl)c1)cc(=O)n2C [tipifarnib]
The gist of the method: as §1

Compound in test [7]: NC(=O)Nc1cc(-c2cccc(F)c2)sc1C(=O)N[C@H]1CCCNC1
Put shortly:
as §1

Compound in a further test: CS(=O)(=O)N1CCN(Cc2cc3nc(-c4cccc5[nH]ncc45)nc(N4CCOCC4)c3s2)CC1 [pictilisib]
Put shortly: as §1

Compound in another test: Cc1ccc(NC(=O)c2ccc(CN3CC[C@H](N(C)C)C3)c(C(F)(F)F)c2)cc1Nc1nccc(-c2cncnc2)n1 [bafetinib]
The gist of the method: as §1

As for HP (UniProt P00738), the log2 fold change is inactive: 0.483 in test [1]; inactive: -0.023 with duvelisib; inactive: -0.33 with gandotinib; inactive: 0.614 in [2]; inactive: -0.094 with dasatinib; inactive: 0.403 in test [3].
As to HLA-E (UniProt P13747), the log2 fold change with tozasertib is inactive: 0.108; in test [4], inactive: -0.044.
Regarding HNRNPC isoform 2 (UniProt P07910), the log2 fold change was inactive: 0.146 with duvelisib, inactive: -0.051 in the test with dasatinib and inactive: 0.07 in test [3].
For the target HELZ2 (UniProt Q9BYK8), the log2 fold change in the test with crizotinib is inactive: -0.01; with doramapimod, inactive: 0.008; in the test with nilotinib, inactive: 0.204; in test [5], inactive: 0.145; in [6] it was inactive: 0.062; with quisinostat it was inactive: -0.094. Besides, the values for the log2 fold change (with tipifarnib; in [7]; in [4]) were inactive: 0.127, inactive: 0.092 and inactive: -0.046, respectively.
Turning to HMGXB3 (UniProt Q12766), the log2 fold change with tozasertib was inactive: 0.081.
HMGXB4 (UniProt Q9UGU5): the log2 fold change is inactive: -0.051 with tozasertib and inactive: -0.339 in [4].
Take HERC3 (UniProt Q15034): the log2 fold change was inactive: -0.057 with crizotinib; inactive: 0.093 with duvelisib; inactive: 0.123 with tozasertib; inactive: -0.006 with doramapimod; inactive: -0.004 with dasatinib; inactive: 0.105 in test [3]. For the same target, the log2 fold change in the test with quisinostat is inactive: 0.019; in [7], inactive: 0.054.
As to HNRNPU isoform 2 (UniProt Q00839), the log2 fold change with duvelisib was inactive: -0.073; with dasatinib, inactive: 0.032; in test [3], inactive: 0.004.
Regarding HNRNPD (UniProt D6RF44), the log2 fold change is inactive: -0.086 in the test with crizotinib; inactive: 0 with doramapimod; inactive: -0.03 with nilotinib; inactive: 0.11 in test [5]; inactive: 0.103 in [6]; inactive: -0.061 with quisinostat. In addition, the log2 fold change was inactive: 0.12 with tipifarnib and inactive: -0.353 in test [7].
In the case of HSBP1 (UniProt O75506), the log2 fold change was inactive: 0.07 in the test with pictilisib; inactive: 0.256 in test [1]; inactive: -0.081 in the test with duvelisib; inactive: -0.05 with gandotinib; inactive: 0.052 with tozasertib; inactive: 0.035 in the test with bafetinib. Besides, the log2 fold change was inactive: -0.172 in test [2], inactive: 0.134 with dasatinib, inactive: 0.135 in test [3] and inactive: 0.082 in test [4].
With HLA-DRA, in the test with tozasertib, the log2 fold change was inactive: 0.056.
As for HPS6 (UniProt Q86YV9), the log2 fold change with crizotinib is inactive: 0.17; in [1] it was inactive: 0.015; with duvelisib, inactive: 0.057; with gandotinib it was inactive: -0.054; with tozasertib, inactive: -0.066; with doramapimod, inactive: -0.095. Also, the log2 fold change was inactive: 0.059 in test [2]; inactive: 0.019 with nilotinib; inactive: 0.02 in [5]; inactive: -0.216 with dasatinib; inactive: 0.049 in [6]; inactive: 0.01 in test [3]. Moreover, the log2 fold change with quisinostat is inactive: 0.15; in the test with tipifarnib, inactive: -0.002; in test [7] it was inactive: 0.084.
As for HP1BP3 isoform 5 (UniProt Q5SSJ5), the log2 fold change in test [4] was inactive: -0.02.
As to HECW2 (UniProt Q9P2P5), the log2 fold change is inactive: -0.075 with crizotinib; inactive: -0.088 with duvelisib; inactive: 0.165 in the test with tozasertib; inactive: 0.24 in the test with doramapimod; inactive: -0.147 with nilotinib; inactive: 0.021 in test [5]. For the same target, the log2 fold change with dasatinib was inactive: -0.031; in test [6], inactive: -0.092; in test [3], inactive: -0.103; with quisinostat, active: -0.513; with tipifarnib, inactive: -0.041; in test [7], inactive: -0.035. The log2 fold change in [4] was inactive: 0.126.
Turning to HMX3 (UniProt A6NHT5), in [4], the log2 fold change was inactive: 0.126.
As for HNRNPUL1 (UniProt M0R247), the log2 fold change is inactive: 0.038 in the test with pictilisib; inactive: 0.014 in test [1]; inactive: -0.014 with gandotinib; inactive: 0.008 with bafetinib; inactive: 0.034 in [2]; inactive: -0.063 in test [4].
HMCN1 (UniProt Q96RW7): the log2 fold change with pictilisib is inactive: -0.022; in test [1], inactive: 0.274; in the test with gandotinib, inactive: -0.241; with bafetinib, inactive: 0.077; in [2] it was inactive: -0.371; with nilotinib it was inactive: 0.028. The values for the log2 fold change (in test [5]; in [6]; with tipifarnib) were inactive: 0.18, inactive: 0.055 and inactive: -0.197, respectively.
For HIGD2A (UniProt Q9BW72), the log2 fold change with crizotinib was inactive: -0.208; in test [1], inactive: -0.037; with duvelisib, inactive: 0.035; in the test with gandotinib it was inactive: 0.05; with doramapimod, inactive: -0.137; in test [2], inactive: -0.004. Besides, the log2 fold change in the test with nilotinib was inactive: 0.22; in test [5] it was inactive: -0.149; in the test with dasatinib it was inactive: 0.138; in [6], inactive: -0.116; in [3], inactive: 0.028; with quisinostat, inactive: -0.659. Moreover, the values for the log2 fold change (in the test with tipifarnib; in test [7]) were inactive: 0.003 and inactive: 0.258, respectively.
Take HIC2 isoform 2 (UniProt Q96JB3): the log2 fold change with crizotinib is inactive: -0.079; with doramapimod, inactive: -0.088; with quisinostat, inactive: 0.028; in test [7] it was inactive: -0.042.
Take HSF2 (UniProt Q03933): the log2 fold change is inactive: -0.119 in [1]; inactive: 0.078 with duvelisib; inactive: 0.049 in the test with gandotinib; inactive: -0.044 in the test with tozasertib; inactive: 0.105 in test [2]; inactive: -0.043 with dasatinib. Further, the log2 fold change in [3] is inactive: 0.11.
